These are yes or no findings as the source states them, for the method shown. Some binding calls cover weakened binding; strength is not graded here.
Experiments:
Assay in all cases: peptide or protein array; HuProt human proteome microarray; 5 ug/5 ml biotin-labelled LUBAC or OTULIN in solution, 1 h at room temperature; Cy5-streptavidin, scanned at 635 nm; BSA as negative control; hits: Z-score >= 3 and I_(Mean_Ratio) >= 1.4; both purified
APTX (human) = APTX (human) (UniProt Q7Z2E3)
SRRT (human) = target: T1, SRRT (human) (UniProt Q9BXP5)
T1 sequence: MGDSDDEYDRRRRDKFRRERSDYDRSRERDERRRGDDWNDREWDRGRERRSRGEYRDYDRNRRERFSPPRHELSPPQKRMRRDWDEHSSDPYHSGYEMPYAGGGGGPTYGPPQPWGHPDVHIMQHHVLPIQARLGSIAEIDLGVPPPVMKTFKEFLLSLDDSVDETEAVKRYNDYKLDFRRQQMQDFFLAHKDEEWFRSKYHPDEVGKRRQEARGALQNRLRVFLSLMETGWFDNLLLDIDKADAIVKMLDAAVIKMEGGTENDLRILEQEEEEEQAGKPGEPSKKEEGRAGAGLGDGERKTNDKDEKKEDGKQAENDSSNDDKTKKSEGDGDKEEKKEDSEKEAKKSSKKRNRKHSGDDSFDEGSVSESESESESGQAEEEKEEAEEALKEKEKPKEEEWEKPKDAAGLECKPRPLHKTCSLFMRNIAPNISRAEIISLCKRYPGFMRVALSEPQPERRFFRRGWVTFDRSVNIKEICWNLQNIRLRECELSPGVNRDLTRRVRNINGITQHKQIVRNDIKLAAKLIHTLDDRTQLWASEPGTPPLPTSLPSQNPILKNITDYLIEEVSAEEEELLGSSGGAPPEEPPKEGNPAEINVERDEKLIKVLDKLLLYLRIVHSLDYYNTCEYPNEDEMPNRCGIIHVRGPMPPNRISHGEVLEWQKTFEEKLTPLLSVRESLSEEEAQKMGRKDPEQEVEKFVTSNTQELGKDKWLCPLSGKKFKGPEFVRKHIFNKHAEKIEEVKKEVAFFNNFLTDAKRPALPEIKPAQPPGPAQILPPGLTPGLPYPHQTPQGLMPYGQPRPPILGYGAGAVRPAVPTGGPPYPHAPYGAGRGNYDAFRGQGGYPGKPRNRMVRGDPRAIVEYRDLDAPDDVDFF

Sequences of proteins named here, by UniProt entry; tags and fusion partners are left off.
UniProt Q7Z2E3: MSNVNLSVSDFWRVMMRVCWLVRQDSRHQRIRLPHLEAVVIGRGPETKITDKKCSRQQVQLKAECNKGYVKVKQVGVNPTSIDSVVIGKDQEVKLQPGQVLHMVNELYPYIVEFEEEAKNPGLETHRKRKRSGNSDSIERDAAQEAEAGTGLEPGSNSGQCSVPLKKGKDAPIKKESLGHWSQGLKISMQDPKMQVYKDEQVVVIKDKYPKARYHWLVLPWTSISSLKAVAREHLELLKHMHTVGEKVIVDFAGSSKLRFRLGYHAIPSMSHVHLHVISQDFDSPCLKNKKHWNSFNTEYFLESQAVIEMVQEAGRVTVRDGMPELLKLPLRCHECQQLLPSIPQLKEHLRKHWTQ
UniProt P20339: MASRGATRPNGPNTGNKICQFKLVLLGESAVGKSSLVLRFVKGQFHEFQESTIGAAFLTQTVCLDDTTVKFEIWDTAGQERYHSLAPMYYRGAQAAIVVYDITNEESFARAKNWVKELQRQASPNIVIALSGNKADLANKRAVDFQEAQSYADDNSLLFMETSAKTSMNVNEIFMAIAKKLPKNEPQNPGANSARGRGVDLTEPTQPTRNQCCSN
UniProt P33993: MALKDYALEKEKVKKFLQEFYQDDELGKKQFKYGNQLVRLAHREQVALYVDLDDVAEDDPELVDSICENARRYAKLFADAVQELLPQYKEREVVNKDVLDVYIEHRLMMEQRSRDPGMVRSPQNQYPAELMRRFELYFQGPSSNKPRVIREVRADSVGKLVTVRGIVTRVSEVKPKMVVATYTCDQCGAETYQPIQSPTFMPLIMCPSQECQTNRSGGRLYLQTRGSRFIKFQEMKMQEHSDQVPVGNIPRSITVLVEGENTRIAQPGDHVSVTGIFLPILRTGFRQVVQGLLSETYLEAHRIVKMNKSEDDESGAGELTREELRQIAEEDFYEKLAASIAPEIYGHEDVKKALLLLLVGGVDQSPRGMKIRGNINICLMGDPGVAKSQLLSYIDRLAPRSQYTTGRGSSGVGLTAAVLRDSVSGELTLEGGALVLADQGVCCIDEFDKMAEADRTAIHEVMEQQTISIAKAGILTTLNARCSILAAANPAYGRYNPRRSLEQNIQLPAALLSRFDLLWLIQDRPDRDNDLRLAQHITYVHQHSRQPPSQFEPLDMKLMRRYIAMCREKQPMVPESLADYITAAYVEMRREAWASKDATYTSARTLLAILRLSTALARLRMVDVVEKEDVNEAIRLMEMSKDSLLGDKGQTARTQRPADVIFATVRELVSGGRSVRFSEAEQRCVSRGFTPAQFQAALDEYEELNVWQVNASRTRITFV
UniProt O43704: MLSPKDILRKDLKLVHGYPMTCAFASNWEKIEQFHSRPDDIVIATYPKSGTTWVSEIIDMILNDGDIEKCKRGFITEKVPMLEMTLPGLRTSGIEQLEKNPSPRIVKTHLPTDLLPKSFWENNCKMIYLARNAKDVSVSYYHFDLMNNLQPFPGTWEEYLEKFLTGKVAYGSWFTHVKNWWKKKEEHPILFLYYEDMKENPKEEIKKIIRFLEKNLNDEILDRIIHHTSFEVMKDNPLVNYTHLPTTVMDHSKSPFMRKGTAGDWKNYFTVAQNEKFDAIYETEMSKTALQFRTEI
UniProt Q9BRP0: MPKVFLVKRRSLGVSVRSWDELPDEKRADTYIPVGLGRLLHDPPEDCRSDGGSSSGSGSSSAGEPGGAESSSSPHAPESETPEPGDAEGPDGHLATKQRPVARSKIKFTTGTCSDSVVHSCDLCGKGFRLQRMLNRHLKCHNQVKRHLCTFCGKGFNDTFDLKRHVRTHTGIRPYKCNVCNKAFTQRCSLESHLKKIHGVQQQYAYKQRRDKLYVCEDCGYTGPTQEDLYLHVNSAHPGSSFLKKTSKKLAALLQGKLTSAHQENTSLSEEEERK

RAB5A (human) = RAB5A (human) (UniProt P20339)
MCM7 (human) = MCM7 (human) (UniProt P33993)
CRY2 (human) = target: T2, CRY2 (human) (UniProt Q49AN0)
T2 sequence: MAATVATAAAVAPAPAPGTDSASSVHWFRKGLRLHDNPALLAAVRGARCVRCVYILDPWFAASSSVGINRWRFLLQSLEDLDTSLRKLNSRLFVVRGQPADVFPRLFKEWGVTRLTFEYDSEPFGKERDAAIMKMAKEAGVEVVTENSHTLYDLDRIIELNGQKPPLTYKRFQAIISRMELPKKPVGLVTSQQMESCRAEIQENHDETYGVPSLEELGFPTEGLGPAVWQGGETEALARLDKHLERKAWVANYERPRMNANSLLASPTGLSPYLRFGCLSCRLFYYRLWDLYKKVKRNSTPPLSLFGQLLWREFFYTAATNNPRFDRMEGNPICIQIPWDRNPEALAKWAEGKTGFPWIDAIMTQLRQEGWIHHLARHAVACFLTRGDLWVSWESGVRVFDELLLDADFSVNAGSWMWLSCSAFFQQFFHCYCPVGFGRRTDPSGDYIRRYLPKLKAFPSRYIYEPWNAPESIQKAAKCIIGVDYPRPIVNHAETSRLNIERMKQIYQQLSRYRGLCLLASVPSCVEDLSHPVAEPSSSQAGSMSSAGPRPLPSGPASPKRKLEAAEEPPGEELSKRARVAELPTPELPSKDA

SULT1B1 (human) = SULT1B1 (human) (UniProt O43704)
GBGT1 (human) = target: T3, GBGT1 (human) (UniProt Q8N5D6)
T3 sequence: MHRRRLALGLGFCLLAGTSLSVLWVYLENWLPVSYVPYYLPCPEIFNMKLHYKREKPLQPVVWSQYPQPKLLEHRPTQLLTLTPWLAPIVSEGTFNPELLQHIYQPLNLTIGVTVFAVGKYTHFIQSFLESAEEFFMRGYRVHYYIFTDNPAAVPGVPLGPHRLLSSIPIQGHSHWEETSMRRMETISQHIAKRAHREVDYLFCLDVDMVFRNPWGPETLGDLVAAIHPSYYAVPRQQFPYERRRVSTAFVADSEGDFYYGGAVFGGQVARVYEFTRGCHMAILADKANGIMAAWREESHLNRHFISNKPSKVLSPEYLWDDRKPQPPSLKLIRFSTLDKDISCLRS

OVOL2 (human) = OVOL2 (human) (UniProt Q9BRP0)

Measured: binding

linear ubiquitin chain assembly complex (LUBAC), purified as HIS-tagged HOIP with the subunit HOIL-1, biotin-labelled (from UniProt Q96EP0 1-1072; Q9BYM8 1-510)
binds: all assays above
